The record followed here is PubChem BioAssay AID1347423 (Functional Genomics Laboratory (NCATS/FGL), 2020).

Among all 52,000 sequences or so, about 210 (0.4%) were called active.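 The calls were made as follows: active = gene whose silencing raises cell survival under the drug, median off-target-corrected z-score across its silencing RNAs 2 or more; inactive = the rest.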 The list shows a part of the results.

This experiment can be described thus: Resistance to Poly (ADP-Ribose) Polymerase inhibitor: Gene Identification via Genome-wide siRNA Screen. To be noted: mouse BRCA2 R2336H ES cells, olaparib, CellTiter-Glo viability; stronger effect = higher value. The method, boiled down: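 Mouse BRCA2 R2336H ES cells were reverse-transfected with siRNA (20 nM final), treated at 48 h with 500 nM olaparib, and read by CellTiter-Glo after 72 h. Scores: MAD-based z per siRNA, median per gene, seed off-target correction.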
GCCACUUCACAGCAAGCUATT against Cdk2ap1: the z-score was inactive: 0.599. Turning to “CCUAUGAAUUGGCUAUCAUTT against 1300013J15Rik”, the z-score was inactive: -0.3. With GGUCAGGAUGAAGAAAACATT against Nedd4l, the z-score was inactive: -0.897. As for GGAAAUGUUUCUGUUCAUUTT against Nipsnap3a, the z-score was inactive: 0.0974. As for UAUCACAGACAUGAAAGAATT against Lst1, the z-score was inactive: 1.39. With “GGAAAAAAGCCUCAUCGGATT against 4931433A13Rik”, the z-score was inactive: -0.23. GGGAAGCUACUCUUUGUCUTT against Hexb: the z-score was inactive: 0.745.

Turning to GGAAAAUGGGAAGACAGAGTT against AW557805, the z-score was inactive: -0.799. For the sequence “GGAGUUUCUCUUAGGGAAATT against 1110014K08Rik”, the z-score is inactive: 0.448. On to “CCAGUAAGGCUUUUAUAUATT against 6430706D22Rik”, for which the z-score is inactive: 2.33.

On to “CCAAUUUGACCCAUACUAUTT against 4632407F12Rik”, for which the z-score is inactive: -0.745. Regarding GGAUCUUGGAUGAGCUGACTT against Krt1-1, the z-score was inactive: -0.2. For GGUGACAGGAAAGUUCUGUTT against AI987692, the z-score is inactive: 1.89. Take CCAUACUAUUUGCUUUUGCTT against Apg5l: the z-score was inactive: -0.471.

Take GCAGGCUAUGUUCUGGAAUTT against Zfp212: the z-score is inactive: 1.18. With GCCUGUUCUCAAGACUGACTT against Sema4a, the z-score is inactive: -0.413. In the case of CGUUGUAUAACAAACCAAUTT against Muc6, the z-score is inactive: -1.12. For the sequence GGAAACAACCCAAAGAAUCTT against Slc12a8, the z-score was inactive: -0.297.

“GGACUUCACAAAGAGCUUUTT against 4930415J21Rik”: the z-score was inactive: -0.254. Turning to GGGAAAAUGUUGAUGCUGATT against Akp5, the z-score is inactive: -1.65. As for GCUACCACAUUUAAACCUUTT against Mrps14, the z-score was inactive: -0.183. As for “GGUUUUCCCACAUGUCAGATT against 2610510L01Rik”, the z-score was inactive: 0.204. As for GGAAAUCAGAAGAAGAACATT against Hars, the figure is inactive: -1.2; as for CCACAGAAAUAUUUCUGUGTT against Olfr292, inactive: 0.916.

In the case of CCCACAUGUUGUCUGUAUUTT against Opn3, the z-score was inactive: -0.8.

Consider GGAUGAUGAUGAGGAAGGGTT against Cd2bp2, for which the z-score is inactive: -0.438. As for “GGAGAAAACAGGCAAUAGUTT against E130201N16Rik”, the z-score was inactive: 0.624.

As for GGUGAUGUUUGUCAACAACTT against Slc14a2, the z-score is inactive: 0.822. Turning to GGCUCAUCGAGAUUAACCCTT against AI790298, the z-score was inactive: -0.371.

Turning to “GGAUUUGAAUUUGAGAGUUTT against 5730410I19Rik”, the z-score was inactive: -0.35. On to “GGAUUUAAUGGUAAAUCACTT against 2310035C23Rik”, for which the z-score was inactive: 0.235. For ACAUACCAGUCUCUGUACCTT against BC028278, the z-score is inactive: -0.264. With “CCCUAUUGCUAAAUCCUAATT against C030038J10Rik”, the z-score was inactive: 2.22.

Turning to “GGAAACAGGAAACAAUCUATT against D11Ertd461e”, the z-score is inactive: 1.28. With GGACUUUGACUUAUCAAAUTT against Kctd11, the z-score was inactive: 0.146.

For the sequence GGAGGAUCGGAAAAAAGCUTT against Ccdc9, the z-score is inactive: -0.294.

Consider GGAGAAAAAAGCUAUGACUTT against Zfp120, for which the z-score was inactive: 1.12. On to GGAUGUCUUCAGCUUCAGGTT against Olfr992, for which the z-score is inactive: 0.77. Regarding GCAUCGUUUUGAUCGAAUATT against Ttrap, the z-score is inactive: 0.409. On to CGCGUCUGUGAAGACCUGUTT against P2rx4, for which the z-score is inactive: 2.34. On to GGACAUUUGAUGACAGUGCTT against Thbd, for which the z-score was inactive: 0.394. On to CGACUUUAAUCAGAGGGCATT against Slc16a3, for which the z-score was inactive: -0.402. To GCUUUGUCACUACCACUGUTT against Olfr1329 belongs inactive: 0.138; to “GGAUCGUGAGCUUCUAUUATT against C730027P07Rik”, inactive: -2.26. As for CGAUCUGUGAUUGAACCACTT against Pak1, the z-score is inactive: -0.971. On to GGGUGAACUCGGAUUGCCUTT against Col23a1, for which the z-score was inactive: -2.44.

As to GGAUCCUAGAGUUUGAGAATT against Rabl5, the z-score is inactive: -0.134. Take GGUGACUUGUAAAGAUUUUTT against Dstn: the z-score was inactive: 0.363. For “CCCGACGACUUAAAAUGGATT against 9030625G08Rik”, the z-score is inactive: -0.354. For GCUUCGAAACGGCCACAAGTT against Grb7, the z-score is inactive: -0.0847.

Consider GCUACUGGUCAAUCUGUUCTT against Ifna2, for which the z-score was inactive: 0.891. For UCCUUACAUACGAUGUGAATT against Rab20, the z-score is inactive: -0.0892. As to “GCUUUAGAUACGUGAUUAGTT against 5830417C01Rik”, the z-score was inactive: -1.26. Consider “CCAGAUGCCCUUAUAUUGGTT against 6330583M11Rik”, for which the z-score is inactive: -0.891. For GCGGUAUGGAAAAAGAGAUTT against Pyy, the z-score was inactive: -0.528. On to GGCUCAGAAGAAAAUGGAUTT against Kcnk4, for which the z-score is inactive: 0.457. As for GGUGACUACUACAGGAAACTT against Hps1, the z-score was inactive: 1.4.

As for GCUCAAGUGCUCGAAUGACTT against Vps11, the z-score is inactive: 0.964.

Turning to CGCAGCUUUCUAUACUGGCTT against Ngfb, the z-score was inactive: -1.17.

With CCACCUAAGCCUACAAUGATT against Papolb, the z-score was inactive: -0.955. As to GGGAGCUAUUUAUCCUAUUTT against AK129302, the z-score is inactive: -1.45. “GCAAUAGAAUCACAUAGGATT against 6230410P16Rik”: the z-score was inactive: 0.154. For the sequence GGGAUACCAGCUGAAUUACTT against Inhbe, the z-score is inactive: 0.345. As for “GGGAUAAUUGUUUCUGAUUTT against 9430097H08Rik”, the figure is inactive: -0.163; as for GGUUGGUCACCUAAUCCAGTT against Aldh2, inactive: 0.378. In the case of GGGACUAAGAUGAAGCUGATT against BC022623, the z-score is inactive: -0.0877.
